According to article PMC5400244:
Results are given in words; binding and its absence hold for the method and conditions named. In cells and extracts the contact can be indirect. Some entries that bind do so weakly or less than the wild type.

By UniProt entry, the sequences of proteins in these tests, tags left out.
UniProt O75475: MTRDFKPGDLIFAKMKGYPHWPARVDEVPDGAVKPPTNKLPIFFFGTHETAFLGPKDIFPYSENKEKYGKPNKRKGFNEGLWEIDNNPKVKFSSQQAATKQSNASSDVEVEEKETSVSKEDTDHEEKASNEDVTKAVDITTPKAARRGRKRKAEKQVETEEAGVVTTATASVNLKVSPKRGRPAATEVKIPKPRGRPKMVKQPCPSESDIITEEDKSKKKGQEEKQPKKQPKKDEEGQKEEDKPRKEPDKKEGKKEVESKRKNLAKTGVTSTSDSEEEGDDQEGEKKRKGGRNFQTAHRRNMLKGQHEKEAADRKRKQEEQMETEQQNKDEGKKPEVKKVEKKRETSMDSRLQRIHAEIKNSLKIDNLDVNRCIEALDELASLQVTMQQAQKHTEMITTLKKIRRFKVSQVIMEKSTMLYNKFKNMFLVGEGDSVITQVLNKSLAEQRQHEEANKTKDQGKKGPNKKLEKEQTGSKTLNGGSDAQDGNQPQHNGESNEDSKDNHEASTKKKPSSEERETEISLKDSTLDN
UniProt Q07955: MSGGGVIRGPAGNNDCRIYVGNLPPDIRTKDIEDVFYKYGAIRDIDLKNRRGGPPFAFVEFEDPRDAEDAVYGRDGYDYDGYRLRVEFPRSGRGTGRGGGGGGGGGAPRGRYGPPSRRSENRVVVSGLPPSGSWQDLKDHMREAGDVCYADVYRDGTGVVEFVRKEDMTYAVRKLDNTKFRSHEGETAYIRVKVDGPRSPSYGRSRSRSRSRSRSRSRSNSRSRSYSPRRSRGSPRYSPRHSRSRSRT

T1: SRp20 (human (endogenous in EBV-transformed lymphoblast cells of an FD patient)) (UniProt P84103)
T1 sequence: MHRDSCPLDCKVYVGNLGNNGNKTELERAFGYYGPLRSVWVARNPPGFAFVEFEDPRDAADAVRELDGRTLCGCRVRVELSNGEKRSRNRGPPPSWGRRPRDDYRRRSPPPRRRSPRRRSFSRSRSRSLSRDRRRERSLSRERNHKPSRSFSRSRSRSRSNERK

B1: non-POU domain-containing octamer-binding protein (protein, UniProt Q15233 1-471)
chain: MQSNKTFNLEKQNHTPRKHHQHHHQQQHHQQQQQQPPPPPIPANGQQASSQNEGLTIDLKNFRKPGEKTFTQRSRLFVGNLPPDITEEEMRKLFEKYGKAGEVFIHKDKGFGFIRLETRTLAEIAKVELDNMPLRGKQLRVRFACHSASLTVRNLPQYVSNELLEEAFSVFGQVERAVVIVDDRGRPSGKGIVEFSGKPAARKALDRCSEGSFLLTTFPRPVTVEPMDQLDDEEGLPEKLVIKNQQFHKEREQPPRFAQPGSFEYEYAMRWKALIEMEKQQQDQVDRNIKEAREKLEMEMEAARHEHQVMLMRQDLMRRQEELRRMEELHNQEVQKRKQLELRQEEERRRREEEMRRQQEEMMRRQQEGFKGTFPDAREQEIRMGQMAMGGAMGINNRGAMPPAPVPAGTPAPPGPATMMPDGTLGLTPPTTERFGQAATMEGIGAIGGTPPAFNRAAPGAEFAPNKRRRY
B2: non-POU domain-containing octamer-binding protein, Q15233 1-471 (protein)
chain: MQSNKTFNLEKQNHTPRKHHQHHHQQQHHQQQQQQPPPPPIPANGQQASSQNEGLTIDLKNFRKPGEKTFTQRSRLFVGNLPPDITEEEMRKLFEKYGKAGEVFIHKDKGFGFIRLETRTLAEIAKVELDNMPLRGKQLRVRFACHSASLTVRNLPQYVSNELLEEAFSVFGQVERAVVIVDDRGRPSGKGIVEFSGKPAARKALDRCSEGSFLLTTFPRPVTVEPMDQLDDEEGLPEKLVIKNQQFHKEREQPPRFAQPGSFEYEYAMRWKALIEMEKQQQDQVDRNIKEAREKLEMEMEAARHEHQVMLMRQDLMRRQEELRRMEELHNQEVQKRKQLELRQEEERRRREEEMRRQQEEMMRRQQEGFKGTFPDAREQEIRMGQMAMGGAMGINNRGAMPPAPVPAGTPAPPGPATMMPDGTLGLTPPTTERFGQAATMEGIGAIGGTPPAFNRAAPGAEFAPNKRRRY
B3: SRp20 (protein, UniProt P84103 1-164)
chain: MHRDSCPLDCKVYVGNLGNNGNKTELERAFGYYGPLRSVWVARNPPGFAFVEFEDPRDAADAVRELDGRTLCGCRVRVELSNGEKRSRNRGPPPSWGRRPRDDYRRRSPPPRRRSPRRRSFSRSRSRSLSRDRRRERSLSRERNHKPSRSFSRSRSRSRSNERK

Tests used:
Test in all cases: co-IP; endogenous proteins in FD cell lysates; 5 ug antibody covalently cross-linked to Protein A/G magnetic beads (Pierce Crosslink Magnetic IP/Co-IP kit), room temperature 2 hours, low-pH elution, Western blotting; nonimmune IgG as negative control
[1] = target: PC4 and SFRS1-interacting protein (human (endogenous in EBV-transformed lymphoblast cells of an FD patient)) (UniProt O75475)
[2] = target: T1, SRp20 (human (endogenous in EBV-transformed lymphoblast cells of an FD patient))
[3] = target: SF2/ASF (human (endogenous in EBV-transformed lymphoblast cells of an FD patient)), Q07955; conditions: remark: other sources report otherwise
[4] = target: SF2/ASF (human (endogenous in EBV-transformed lymphoblast cells of an FD patient)) (UniProt Q07955)

Row | Binder | binding [1] | binding [2] | binding [3] | binding [4]
1 | B1 | binds | binds | – | –
2 | B2 | – | – | binds | –
3 | B3 | binds | – | – | binds
